Measurements published in the supplement of paper PMC10849652.
The other results are listed elsewhere or left out. Residues, ends and D or L forms follow the SMILES beside them. *: point of attachment. Cbz = O=C(OCc1ccccc1)*

The chains behind the UniProt entries cited, without tags or fusion partners. Where a name states a change or a piece, a line headed by the entry shows the natural chain unless it says otherwise.
UniProt P62304, whole entry, looked up: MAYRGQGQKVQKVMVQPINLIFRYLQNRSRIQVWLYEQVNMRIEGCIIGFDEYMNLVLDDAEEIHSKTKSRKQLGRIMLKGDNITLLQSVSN
UniProt P00441, whole entry, looked up: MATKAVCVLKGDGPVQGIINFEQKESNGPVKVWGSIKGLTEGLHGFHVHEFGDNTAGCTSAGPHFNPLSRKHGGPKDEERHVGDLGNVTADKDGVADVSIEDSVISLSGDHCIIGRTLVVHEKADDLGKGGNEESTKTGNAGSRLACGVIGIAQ
UniProt Q96Q15: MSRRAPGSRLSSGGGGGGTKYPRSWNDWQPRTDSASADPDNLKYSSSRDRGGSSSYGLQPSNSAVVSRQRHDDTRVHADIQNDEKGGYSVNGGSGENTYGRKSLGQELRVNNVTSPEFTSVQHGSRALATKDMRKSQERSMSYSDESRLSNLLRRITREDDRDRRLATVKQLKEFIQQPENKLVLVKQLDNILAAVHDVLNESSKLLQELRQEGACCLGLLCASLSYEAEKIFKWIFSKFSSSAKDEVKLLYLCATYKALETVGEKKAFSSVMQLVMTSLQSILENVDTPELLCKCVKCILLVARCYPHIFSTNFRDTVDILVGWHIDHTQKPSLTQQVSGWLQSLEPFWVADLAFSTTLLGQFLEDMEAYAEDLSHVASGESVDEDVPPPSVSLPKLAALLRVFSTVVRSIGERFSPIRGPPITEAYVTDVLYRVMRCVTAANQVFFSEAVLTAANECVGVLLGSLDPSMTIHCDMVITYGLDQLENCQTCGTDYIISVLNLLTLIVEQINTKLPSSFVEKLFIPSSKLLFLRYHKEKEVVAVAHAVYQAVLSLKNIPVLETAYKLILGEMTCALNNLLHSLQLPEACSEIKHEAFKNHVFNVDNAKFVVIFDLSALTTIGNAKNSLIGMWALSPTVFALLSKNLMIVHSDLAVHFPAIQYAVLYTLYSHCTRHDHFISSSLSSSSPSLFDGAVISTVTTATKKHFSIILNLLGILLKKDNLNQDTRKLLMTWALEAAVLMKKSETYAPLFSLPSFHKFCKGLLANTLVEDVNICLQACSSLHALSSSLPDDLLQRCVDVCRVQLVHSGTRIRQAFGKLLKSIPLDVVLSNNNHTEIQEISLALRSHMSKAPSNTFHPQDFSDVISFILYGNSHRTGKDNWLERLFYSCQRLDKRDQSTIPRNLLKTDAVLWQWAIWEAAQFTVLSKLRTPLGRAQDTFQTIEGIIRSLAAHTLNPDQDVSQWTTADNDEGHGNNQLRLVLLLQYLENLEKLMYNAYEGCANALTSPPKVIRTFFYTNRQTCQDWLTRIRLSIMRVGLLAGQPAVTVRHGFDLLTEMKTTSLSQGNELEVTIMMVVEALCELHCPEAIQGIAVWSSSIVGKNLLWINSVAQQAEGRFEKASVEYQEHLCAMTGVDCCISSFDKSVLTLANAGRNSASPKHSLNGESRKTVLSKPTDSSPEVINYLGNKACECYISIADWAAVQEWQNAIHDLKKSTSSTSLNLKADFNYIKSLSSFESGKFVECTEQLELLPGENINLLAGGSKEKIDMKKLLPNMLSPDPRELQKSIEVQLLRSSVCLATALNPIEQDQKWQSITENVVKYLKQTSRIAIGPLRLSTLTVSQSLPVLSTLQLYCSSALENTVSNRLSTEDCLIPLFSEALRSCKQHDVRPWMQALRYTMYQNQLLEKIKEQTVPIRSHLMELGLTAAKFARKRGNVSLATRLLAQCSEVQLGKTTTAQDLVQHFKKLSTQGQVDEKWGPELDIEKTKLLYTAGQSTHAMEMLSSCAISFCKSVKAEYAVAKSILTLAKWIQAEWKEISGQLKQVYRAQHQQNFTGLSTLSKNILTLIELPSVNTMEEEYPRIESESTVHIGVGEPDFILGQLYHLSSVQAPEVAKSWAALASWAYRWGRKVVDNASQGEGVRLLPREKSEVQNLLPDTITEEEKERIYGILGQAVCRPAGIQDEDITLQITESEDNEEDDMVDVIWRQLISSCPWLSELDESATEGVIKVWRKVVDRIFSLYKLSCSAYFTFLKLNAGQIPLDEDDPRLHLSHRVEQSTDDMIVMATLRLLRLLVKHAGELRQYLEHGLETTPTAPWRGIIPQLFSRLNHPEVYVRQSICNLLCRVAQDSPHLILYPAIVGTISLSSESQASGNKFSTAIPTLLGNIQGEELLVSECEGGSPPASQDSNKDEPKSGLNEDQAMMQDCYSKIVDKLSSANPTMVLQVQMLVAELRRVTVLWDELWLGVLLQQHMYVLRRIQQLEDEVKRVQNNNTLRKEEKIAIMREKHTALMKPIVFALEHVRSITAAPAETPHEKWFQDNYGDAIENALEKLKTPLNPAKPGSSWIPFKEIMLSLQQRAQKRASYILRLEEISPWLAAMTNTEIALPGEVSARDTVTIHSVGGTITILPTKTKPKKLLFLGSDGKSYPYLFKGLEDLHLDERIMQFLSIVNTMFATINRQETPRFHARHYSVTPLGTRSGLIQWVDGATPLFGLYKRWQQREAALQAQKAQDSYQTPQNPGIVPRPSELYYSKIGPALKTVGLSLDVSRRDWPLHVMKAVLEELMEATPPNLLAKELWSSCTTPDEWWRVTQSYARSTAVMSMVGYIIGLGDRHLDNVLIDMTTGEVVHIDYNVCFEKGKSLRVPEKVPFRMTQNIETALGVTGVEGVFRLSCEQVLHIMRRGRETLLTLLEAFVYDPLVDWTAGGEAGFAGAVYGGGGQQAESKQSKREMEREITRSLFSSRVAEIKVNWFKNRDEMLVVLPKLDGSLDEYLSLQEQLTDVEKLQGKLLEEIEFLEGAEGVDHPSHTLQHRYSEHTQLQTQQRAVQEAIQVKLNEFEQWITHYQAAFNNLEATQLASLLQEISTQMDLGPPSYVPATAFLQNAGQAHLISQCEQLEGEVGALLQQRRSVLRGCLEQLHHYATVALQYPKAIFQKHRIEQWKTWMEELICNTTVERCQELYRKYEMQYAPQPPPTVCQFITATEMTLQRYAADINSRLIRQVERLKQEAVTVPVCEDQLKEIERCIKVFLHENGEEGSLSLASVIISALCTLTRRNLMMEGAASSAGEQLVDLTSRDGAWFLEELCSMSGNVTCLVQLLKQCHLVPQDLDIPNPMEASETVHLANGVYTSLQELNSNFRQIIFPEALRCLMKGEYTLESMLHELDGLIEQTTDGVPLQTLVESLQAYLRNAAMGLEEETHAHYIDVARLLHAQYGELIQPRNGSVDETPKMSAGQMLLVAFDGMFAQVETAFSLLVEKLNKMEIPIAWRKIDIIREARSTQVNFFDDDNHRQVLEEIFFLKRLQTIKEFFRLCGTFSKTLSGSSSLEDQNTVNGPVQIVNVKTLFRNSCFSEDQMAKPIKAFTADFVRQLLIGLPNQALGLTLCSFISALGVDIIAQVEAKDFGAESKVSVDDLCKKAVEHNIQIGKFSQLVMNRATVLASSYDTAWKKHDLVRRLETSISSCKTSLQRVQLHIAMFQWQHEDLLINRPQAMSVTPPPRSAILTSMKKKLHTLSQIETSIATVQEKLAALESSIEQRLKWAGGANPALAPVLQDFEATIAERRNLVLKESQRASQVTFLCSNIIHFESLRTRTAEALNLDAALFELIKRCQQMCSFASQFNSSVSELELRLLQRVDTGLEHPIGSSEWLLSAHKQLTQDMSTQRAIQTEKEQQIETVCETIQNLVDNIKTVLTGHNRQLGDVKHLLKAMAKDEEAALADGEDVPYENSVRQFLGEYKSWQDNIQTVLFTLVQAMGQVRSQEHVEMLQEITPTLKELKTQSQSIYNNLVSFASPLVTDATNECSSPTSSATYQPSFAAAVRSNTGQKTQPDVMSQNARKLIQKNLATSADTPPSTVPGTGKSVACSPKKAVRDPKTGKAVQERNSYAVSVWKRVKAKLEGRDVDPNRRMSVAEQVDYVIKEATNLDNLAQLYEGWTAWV
UniProt Q8WVK2: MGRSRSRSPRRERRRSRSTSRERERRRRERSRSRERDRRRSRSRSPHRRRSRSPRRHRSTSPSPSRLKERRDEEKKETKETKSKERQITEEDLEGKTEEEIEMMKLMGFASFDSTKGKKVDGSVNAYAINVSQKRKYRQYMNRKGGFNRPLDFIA
UniProt Q92536: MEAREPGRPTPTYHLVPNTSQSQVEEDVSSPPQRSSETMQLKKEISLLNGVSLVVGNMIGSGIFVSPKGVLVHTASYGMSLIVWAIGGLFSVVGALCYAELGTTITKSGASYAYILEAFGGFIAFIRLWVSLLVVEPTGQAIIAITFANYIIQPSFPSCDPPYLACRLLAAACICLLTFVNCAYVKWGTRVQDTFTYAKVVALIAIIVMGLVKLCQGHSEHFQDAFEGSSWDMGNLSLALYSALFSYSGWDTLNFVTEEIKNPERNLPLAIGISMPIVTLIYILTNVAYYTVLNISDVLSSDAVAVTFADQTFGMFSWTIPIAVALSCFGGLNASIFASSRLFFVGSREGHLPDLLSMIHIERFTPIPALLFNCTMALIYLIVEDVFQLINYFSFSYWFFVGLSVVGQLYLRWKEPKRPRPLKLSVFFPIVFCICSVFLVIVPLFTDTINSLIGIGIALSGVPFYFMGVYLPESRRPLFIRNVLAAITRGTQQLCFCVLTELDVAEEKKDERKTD
UniProt P62318, whole entry, looked up: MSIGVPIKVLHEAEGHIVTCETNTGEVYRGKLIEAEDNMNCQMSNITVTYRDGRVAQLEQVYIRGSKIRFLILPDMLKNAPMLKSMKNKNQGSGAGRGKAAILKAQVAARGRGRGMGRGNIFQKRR
UniProt Q8IY18: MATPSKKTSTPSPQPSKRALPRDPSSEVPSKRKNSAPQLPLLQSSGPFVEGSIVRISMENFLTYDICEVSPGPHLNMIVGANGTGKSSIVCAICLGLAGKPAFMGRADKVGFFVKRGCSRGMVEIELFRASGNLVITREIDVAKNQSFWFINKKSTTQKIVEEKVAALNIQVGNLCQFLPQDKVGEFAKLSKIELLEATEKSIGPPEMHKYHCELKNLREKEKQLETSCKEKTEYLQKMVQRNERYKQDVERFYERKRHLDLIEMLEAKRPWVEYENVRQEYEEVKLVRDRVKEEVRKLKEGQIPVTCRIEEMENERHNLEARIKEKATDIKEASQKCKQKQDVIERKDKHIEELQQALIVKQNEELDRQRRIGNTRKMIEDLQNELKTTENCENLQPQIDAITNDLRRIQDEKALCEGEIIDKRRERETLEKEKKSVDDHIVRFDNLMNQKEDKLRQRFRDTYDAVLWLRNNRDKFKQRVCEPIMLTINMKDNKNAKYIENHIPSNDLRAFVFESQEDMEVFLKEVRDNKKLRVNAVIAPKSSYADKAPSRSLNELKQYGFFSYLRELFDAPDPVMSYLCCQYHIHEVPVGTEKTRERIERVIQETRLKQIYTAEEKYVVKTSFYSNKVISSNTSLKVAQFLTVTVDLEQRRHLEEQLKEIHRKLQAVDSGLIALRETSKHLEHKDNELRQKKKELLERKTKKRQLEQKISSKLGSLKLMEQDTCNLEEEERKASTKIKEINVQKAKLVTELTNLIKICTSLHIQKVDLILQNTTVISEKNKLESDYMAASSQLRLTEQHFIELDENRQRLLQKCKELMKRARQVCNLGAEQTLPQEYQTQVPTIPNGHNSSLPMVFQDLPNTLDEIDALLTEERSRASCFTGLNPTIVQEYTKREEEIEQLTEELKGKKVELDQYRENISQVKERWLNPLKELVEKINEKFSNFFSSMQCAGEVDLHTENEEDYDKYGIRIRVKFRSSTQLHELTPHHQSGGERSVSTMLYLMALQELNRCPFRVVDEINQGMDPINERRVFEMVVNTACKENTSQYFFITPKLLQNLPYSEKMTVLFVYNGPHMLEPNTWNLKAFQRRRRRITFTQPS
UniProt P08579, whole entry, looked up: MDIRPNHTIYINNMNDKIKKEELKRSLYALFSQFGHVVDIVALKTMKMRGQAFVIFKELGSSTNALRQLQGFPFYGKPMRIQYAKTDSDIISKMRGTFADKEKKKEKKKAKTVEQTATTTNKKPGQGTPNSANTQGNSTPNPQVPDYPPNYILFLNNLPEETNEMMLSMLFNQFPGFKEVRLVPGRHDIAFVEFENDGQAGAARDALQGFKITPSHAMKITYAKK
UniProt O60493, whole entry, looked up: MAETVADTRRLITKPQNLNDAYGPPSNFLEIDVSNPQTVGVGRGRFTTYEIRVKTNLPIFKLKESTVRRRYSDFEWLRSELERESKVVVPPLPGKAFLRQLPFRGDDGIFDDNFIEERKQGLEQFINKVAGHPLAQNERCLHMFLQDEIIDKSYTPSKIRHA
UniProt O95149, whole entry, looked up: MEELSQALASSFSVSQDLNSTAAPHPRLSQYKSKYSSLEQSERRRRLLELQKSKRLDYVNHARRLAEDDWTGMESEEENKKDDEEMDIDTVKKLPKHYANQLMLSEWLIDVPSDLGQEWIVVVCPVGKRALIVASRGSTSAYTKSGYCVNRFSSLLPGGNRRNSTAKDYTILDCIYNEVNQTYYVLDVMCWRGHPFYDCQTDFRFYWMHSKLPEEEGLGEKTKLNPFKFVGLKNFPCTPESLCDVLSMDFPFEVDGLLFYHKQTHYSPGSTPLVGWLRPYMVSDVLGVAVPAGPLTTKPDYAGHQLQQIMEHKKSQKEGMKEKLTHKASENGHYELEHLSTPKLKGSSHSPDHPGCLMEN

Columns and labels:
Test in all cases: log2 fold change, soluble protein after heating vs DMSO (PISA); higher = thermal stabilisation; K562 cells, 10 uM, 30 min; active = over 0.2 and 3.5 SD of the protein, either way, in both replicates (recomputed)
IRAK-1-4 Inhibitor I = compound: C1COCCN1CCN2C3=CC=CC=C3N=C2NC(=O)C4=CC(=CC=C4)[N+](=O)[O-] [IRAK-1-4 Inhibitor I]
How it was run: (§1)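 K562 cells (2×10^6 cells/mL) were treated with 10 μM compound for 30 min, and aliquots were heated for 3 min over 48°C-58°C. Pooled aliquots were extracted in PBS with 0.5% NP-40 at 4°C, and the supernatant after 21,000xg for 90 min was measured by TMTpro 16plex LC-MS/MS with channel sums equalised. Reported thermal stability, relative to control samples and from duplicates, is a log2 fold change.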

ibrutinib = compound: C=CC(=O)N1CCC[C@@H](n2nc(-c3ccc(Oc4ccccc4)cc3)c3c(N)ncnc32)C1 [ibrutinib]
How it was run: as §1

[1] = compound: CC(=O)c1cnc2ccc(-c3cc(Cl)c(O)c(Cl)c3)nc2c1N[C@H]1CC[C@H](CN(C)C)CC1
How it was run: as §1

ralimetinib = compound: CC(C)(C)Cn1c(N)nc2ccc(-c3[nH]c(C(C)(C)C)nc3-c3ccc(F)cc3)nc21 [ralimetinib]
How it was run: as §1

[2] = compound: CC(C)(O)CC(=O)NCCn1ccc2ncnc(Nc3ccc(Oc4cccc(C(F)(F)F)c4)c(Cl)c3)c21
How it was run: as §1

[3] = compound: CC(C)C1=C2N=C(C=C(N2N=C1)NCC3=CC=CC=C3)NCCCCCCN
How it was run: as §1

[4] = compound: CC(C)C[C@@H](C=O)NC(=O)[C@H](CC(C)C)NC(=O)[C@H](CC(C)C)NC(=O)OCc1ccccc1
How it was run: as §1

pinometostat = compound: CC(C)N(C[C@H]1O[C@@H](n2cnc3c(N)ncnc32)[C@H](O)[C@@H]1O)[C@H]1C[C@@H](CCc2nc3cc(C(C)(C)C)ccc3[nH]2)C1 [pinometostat]
How it was run: as §1

[5] = compound: CC1=C(C(CC(=O)N1)C2=CC=C(C=C2)C(F)(F)F)C(=O)NC3=C(C=C4C(=C3)C=NN4)F
How it was run: as §1

[6] = compound: CC1=C(C2=C(C=C1)C(=O)C3=CC=CC=C3N2CCCN)C
How it was run: as §1

Target | log2 fold change (IRAK-1-4 Inhibitor I) | log2 fold change (ibrutinib) | log2 fold change [1] | log2 fold change (ralimetinib) | log2 fold change [2] | log2 fold change [3] | log2 fold change [4] | log2 fold change (pinometostat) | log2 fold change [5] | log2 fold change [6]
SNRPE (UniProt P62304) | inactive: 0.028 | inactive: 0.013 | inactive: 0.022 | inactive: -0.032 | inactive: 0.071 | inactive: 0.192 | inactive: -0.023 | inactive: -0.011 | inactive: 0.007 | inactive: 0.046
SMU1 (UniProt Q2TAY7) | inactive: 0.013 | inactive: -0.065 | inactive: -0.017 | inactive: 0.007 | inactive: -0.003 | inactive: 0.021 | inactive: 0 | inactive: 0.022 | inactive: 0 | inactive: 0.047
SNCG (UniProt O76070) | inactive: 0.043 | inactive: 0.017 | inactive: 0.038 | inactive: -0.066 | inactive: -0.009 | inactive: 0.079 | inactive: 0.022 | inactive: -0.034 | inactive: 0.008 | inactive: -0.012
SOD1 (UniProt P00441) | inactive: 0.055 | inactive: -0.017 | inactive: -0.006 | inactive: -0.093 | inactive: 0.038 | inactive: 0.1 | inactive: 0.156 | inactive: -0.038 | inactive: -0.051 | inactive: -0.038
SP1 (UniProt P08047) | inactive: 0.013 | inactive: 0.024 | inactive: 0.029 | inactive: -0.049 | inactive: -0.031 | inactive: -0.05 | inactive: 0.064 | inactive: 0.04 |  | active: -0.312
SORT1 (UniProt Q99523) | inactive: 0.044 | inactive: 0.044 | inactive: 0.031 | inactive: -0.005 | inactive: -0.027 | inactive: -0.202 | inactive: -0.028 | inactive: -0.03 |  | inactive: -0.019
SLC9A6 isoform 2 (UniProt Q92581) | inactive: 0.052 | inactive: 0.024 | inactive: 0.005 | inactive: -0.056 | inactive: -0.02 | inactive: 0.038 | inactive: 0.042 | inactive: 0.083 |  | inactive: 0.023
SMG1 (UniProt Q96Q15) | inactive: -0.088 | inactive: 0.021 | inactive: -0.002 | inactive: 0.012 | inactive: 0.002 | inactive: 0.007 | inactive: -0.014 | inactive: -0.06 |  | inactive: 0.054
SNRNP27 (UniProt Q8WVK2) | inactive: 0.033 | inactive: 0.002 | inactive: -0.03 | inactive: -0.118 | inactive: 0.018 | inactive: 0.035 | inactive: 0.054 | inactive: -0.04 |  | inactive: -0.043
SLC7A6 (UniProt Q92536) | inactive: -0.03 | inactive: -0.032 | inactive: -0.037 | inactive: -0.02 | inactive: -0.301 | inactive: 0.142 | inactive: 0.006 | inactive: -0.068 |  | inactive: -0.02
SNRPD3 (UniProt P62318) | inactive: 0.002 | inactive: -0.006 | inactive: 0.067 | inactive: -0.022 | inactive: 0.208 | inactive: 0.162 | inactive: 0.017 | inactive: 0.027 |  | inactive: 0.022
SP100 isoform 4 (UniProt P23497) | inactive: 0.006 | inactive: -0.012 | inactive: 0.074 | inactive: 0.019 | inactive: 0.011 | inactive: -0.015 | inactive: -0.07 | inactive: -0.035 |  | inactive: -0.1
SMC5 (UniProt Q8IY18) | inactive: 0.041 | inactive: 0.062 | inactive: -0.045 | inactive: 0.046 | inactive: 0.029 | inactive: 0.161 | inactive: 0.036 | inactive: 0.008 |  | active: -0.332
SOAT1 (UniProt P35610) | inactive: 0.1 | inactive: -0.008 | inactive: -0.031 | inactive: 0.031 | inactive: -0.04 | inactive: -0.014 | inactive: 0.303 | inactive: -0.017 |  | inactive: 0.053
SMARCA1 (UniProt P28370) | inactive: -0.198 | inactive: -0.05 | inactive: -0.147 | inactive: 0.019 | inactive: -0.093 | inactive: 0.021 | inactive: 0.052 | inactive: 0.32 |  | inactive: -0.396
SNRPB2 (UniProt P08579) | inactive: 0.067 | inactive: 0.074 | inactive: 0.089 | inactive: -0.015 | inactive: 0.037 | active: 0.213 | inactive: 0.037 | inactive: 0 |  | inactive: 0.036
SNX3 (UniProt O60493) | inactive: -0.049 | inactive: 0.011 | inactive: -0.028 | inactive: -0.059 | inactive: -0.104 | inactive: -0.187 | inactive: 0.084 | inactive: 0.073 |  | inactive: 0.053
SMARCAD1 isoform 2 (UniProt Q9H4L7) | inactive: -0.031 | inactive: -0.016 | inactive: 0.014 | inactive: -0.009 | inactive: -0.201 | inactive: -0.2 | inactive: 0.029 | inactive: -0.003 |  | inactive: 0.144
SMARCE1 (UniProt Q969G3) | inactive: -0.29 | inactive: 0.185 | inactive: -0.006 | inactive: 0.163 | inactive: -0.043 | inactive: -0.128 | inactive: -0.037 | inactive: -0.031 |  | inactive: -0.091
SNX1 (UniProt Q13596) | inactive: 0.022 | inactive: 0.022 | inactive: -0.227 | inactive: 0.033 | inactive: -0.288 | inactive: -0.246 | inactive: 0.034 | inactive: 0.014 |  | inactive: 0.036
SMCHD1 (UniProt A6NHR9) | inactive: -0.268 | inactive: -0.007 | inactive: -0.344 | inactive: 0.108 | inactive: 0.068 | inactive: -0.067 | inactive: 0.038 | inactive: 0.092 |  | inactive: 0.406
SNUPN (UniProt O95149) | inactive: 0.037 | inactive: -0.039 | inactive: -0.089 | inactive: -0.026 | inactive: -0.045 | inactive: -0.034 | inactive: 0.037 | inactive: 0.07 |  | inactive: -0.184
SLK isoform 2 (UniProt Q9H2G2) | inactive: -0.008 | inactive: -0.123 | inactive: 0.04 | inactive: 0.005 | inactive: -0.216 | inactive: 0.002 | inactive: 0.022 | inactive: 0.022 |  | inactive: 0.073
SPAG9 (UniProt O60271) | inactive: -0.003 | inactive: -0.003 | inactive: 0.022 | inactive: 0 | inactive: -0.045 | active: -0.219 | inactive: 0.016 | inactive: 0.028 |  | inactive: -0.004

Quoted at random: two records from the list
Target | log2 fold change (IRAK-1-4 Inhibitor I) | log2 fold change (ibrutinib) | log2 fold change [1] | log2 fold change (ralimetinib) | log2 fold change [2] | log2 fold change [3] | log2 fold change [4] | log2 fold change (pinometostat) | log2 fold change [5] | log2 fold change [6]
SNUPN (UniProt O95149) | inactive: 0.037 | inactive: -0.039 | inactive: -0.089 | inactive: -0.026 | inactive: -0.045 | inactive: -0.034 | inactive: 0.037 | inactive: 0.07 |  | inactive: -0.184
SNRPB2 (UniProt P08579) | inactive: 0.067 | inactive: 0.074 | inactive: 0.089 | inactive: -0.015 | inactive: 0.037 | active: 0.213 | inactive: 0.037 | inactive: 0 |  | inactive: 0.036
